# Measurements: the supplement of paper PMC10849652
# By UniProt entry, the sequences of proteins in these tests, tags left out. Where a name states a change or a piece, a line headed by the entry shows the natural chain unless it says otherwise.
# UniProt O15519, whole entry, looked up: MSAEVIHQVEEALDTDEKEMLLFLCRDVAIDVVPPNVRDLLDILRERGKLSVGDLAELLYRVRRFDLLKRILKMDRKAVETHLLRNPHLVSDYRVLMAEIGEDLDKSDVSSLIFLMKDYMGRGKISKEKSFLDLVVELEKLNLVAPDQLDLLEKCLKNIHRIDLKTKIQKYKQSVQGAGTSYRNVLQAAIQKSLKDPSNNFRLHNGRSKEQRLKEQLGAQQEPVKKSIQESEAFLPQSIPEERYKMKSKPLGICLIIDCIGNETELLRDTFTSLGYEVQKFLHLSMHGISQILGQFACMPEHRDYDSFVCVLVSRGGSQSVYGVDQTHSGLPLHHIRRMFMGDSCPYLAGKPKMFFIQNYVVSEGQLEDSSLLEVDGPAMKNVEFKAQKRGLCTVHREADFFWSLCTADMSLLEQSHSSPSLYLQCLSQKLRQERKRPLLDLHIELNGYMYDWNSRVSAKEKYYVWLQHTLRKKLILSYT
# UniProt Q96MT8: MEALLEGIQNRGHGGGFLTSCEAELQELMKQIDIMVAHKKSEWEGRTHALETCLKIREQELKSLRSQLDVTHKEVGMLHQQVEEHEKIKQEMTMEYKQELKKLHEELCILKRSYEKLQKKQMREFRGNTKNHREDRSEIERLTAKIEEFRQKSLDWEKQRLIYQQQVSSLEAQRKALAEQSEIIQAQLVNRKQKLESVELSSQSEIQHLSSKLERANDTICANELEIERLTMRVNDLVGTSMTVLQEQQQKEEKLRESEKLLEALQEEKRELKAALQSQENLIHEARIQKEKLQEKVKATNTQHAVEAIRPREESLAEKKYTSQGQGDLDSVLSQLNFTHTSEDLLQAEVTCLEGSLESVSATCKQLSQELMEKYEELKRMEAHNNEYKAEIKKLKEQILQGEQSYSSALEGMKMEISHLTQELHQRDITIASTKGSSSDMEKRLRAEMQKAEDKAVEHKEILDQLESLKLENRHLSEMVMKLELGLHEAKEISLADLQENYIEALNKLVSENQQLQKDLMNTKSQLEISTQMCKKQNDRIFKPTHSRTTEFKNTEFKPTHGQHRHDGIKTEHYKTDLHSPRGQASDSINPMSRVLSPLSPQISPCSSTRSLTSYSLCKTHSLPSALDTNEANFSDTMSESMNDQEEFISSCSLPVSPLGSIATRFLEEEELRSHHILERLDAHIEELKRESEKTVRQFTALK
# UniProt P14209: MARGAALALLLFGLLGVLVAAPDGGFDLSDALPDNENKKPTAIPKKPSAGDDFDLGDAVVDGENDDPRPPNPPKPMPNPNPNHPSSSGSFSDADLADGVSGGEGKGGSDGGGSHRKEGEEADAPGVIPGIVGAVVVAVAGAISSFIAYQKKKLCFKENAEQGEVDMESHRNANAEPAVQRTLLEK
# UniProt Q9BU64: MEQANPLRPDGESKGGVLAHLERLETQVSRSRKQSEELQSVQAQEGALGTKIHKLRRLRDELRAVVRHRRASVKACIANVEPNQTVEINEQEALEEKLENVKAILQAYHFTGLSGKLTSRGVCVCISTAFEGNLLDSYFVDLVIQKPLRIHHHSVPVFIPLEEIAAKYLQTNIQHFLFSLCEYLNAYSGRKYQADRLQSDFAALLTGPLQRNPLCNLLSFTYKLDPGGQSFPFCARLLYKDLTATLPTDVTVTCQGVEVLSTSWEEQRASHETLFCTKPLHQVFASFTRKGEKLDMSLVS
# This is one part of the list.
# What was measured:
# Experiment in all cases: log2 fold change, soluble protein after heating vs DMSO (PISA); higher = thermal stabilisation; K562 lysate, 10 uM; active = over 0.2 and 3.5 SD of the protein, either way, in both replicates (recomputed)
# [1] = compound: CC1=C2C(=CC=C1)N=C(N(C2=O)C3=CC=CC=C3C)CN4C=NC5=C(N=CN=C54)N
# Procedure, shortened: (§1)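 Values give the log-two fold change in thermal stability against solvent controls, from duplicates. Crude K562 extract at 1 mg/mL protein, made by dounce homogenisation in PBS pH 7.4 with 1 mM MgCl2, was treated with 10 μM compound for 30 min. After 3 min heating across 48°C-58°C, aliquots were pooled, adjusted to 0.5% NP-40 at 4°C and centrifuged at 21,000xg for 90 min. The supernatant was measured by TMTpro 16plex LC-MS/MS with channel sums equalised.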
# [2] = compound: Cc1sc2c(c1C)C(c1ccc(Cl)cc1)=N[C@@H](CC(=O)OC(C)(C)C)c1nnc(C)n1-2
# Procedure, shortened: as §1
# [3] = compound: c1ccc([C@@H]2C[C@H]2NC2CCNCC2)cc1
# Procedure, shortened: as §1
Target,log2 fold change [1],log2 fold change [2],log2 fold change [3]
CFLAR (UniProt O15519),inactive: 0.121,inactive: -0.014,inactive: 0.167
CEP63 (UniProt Q96MT8),–,inactive: 0.094,inactive: -0.13
CD99 (UniProt P14209),inactive: -0.065,inactive: 0.077,inactive: -0.025
CENPO (UniProt Q9BU64),–,–,inactive: 0.09
